No constants are given. Whether binding was seen depends on the method and setting. In cells and extracts the contact can be indirect.
Target: Rho-associated coiled-coil kinase 1 (human (endogenous in HEK-293T)) (UniProt Q13464)
Test: co-IP; HEK-293T lysate (Pierce IP lysis buffer); anti-ROCK1 antibody overnight at 4 °C, protein A/G agarose; immunoblotting

Amino acid sequences for entries named in this document (tags omitted).
UniProt Q13464: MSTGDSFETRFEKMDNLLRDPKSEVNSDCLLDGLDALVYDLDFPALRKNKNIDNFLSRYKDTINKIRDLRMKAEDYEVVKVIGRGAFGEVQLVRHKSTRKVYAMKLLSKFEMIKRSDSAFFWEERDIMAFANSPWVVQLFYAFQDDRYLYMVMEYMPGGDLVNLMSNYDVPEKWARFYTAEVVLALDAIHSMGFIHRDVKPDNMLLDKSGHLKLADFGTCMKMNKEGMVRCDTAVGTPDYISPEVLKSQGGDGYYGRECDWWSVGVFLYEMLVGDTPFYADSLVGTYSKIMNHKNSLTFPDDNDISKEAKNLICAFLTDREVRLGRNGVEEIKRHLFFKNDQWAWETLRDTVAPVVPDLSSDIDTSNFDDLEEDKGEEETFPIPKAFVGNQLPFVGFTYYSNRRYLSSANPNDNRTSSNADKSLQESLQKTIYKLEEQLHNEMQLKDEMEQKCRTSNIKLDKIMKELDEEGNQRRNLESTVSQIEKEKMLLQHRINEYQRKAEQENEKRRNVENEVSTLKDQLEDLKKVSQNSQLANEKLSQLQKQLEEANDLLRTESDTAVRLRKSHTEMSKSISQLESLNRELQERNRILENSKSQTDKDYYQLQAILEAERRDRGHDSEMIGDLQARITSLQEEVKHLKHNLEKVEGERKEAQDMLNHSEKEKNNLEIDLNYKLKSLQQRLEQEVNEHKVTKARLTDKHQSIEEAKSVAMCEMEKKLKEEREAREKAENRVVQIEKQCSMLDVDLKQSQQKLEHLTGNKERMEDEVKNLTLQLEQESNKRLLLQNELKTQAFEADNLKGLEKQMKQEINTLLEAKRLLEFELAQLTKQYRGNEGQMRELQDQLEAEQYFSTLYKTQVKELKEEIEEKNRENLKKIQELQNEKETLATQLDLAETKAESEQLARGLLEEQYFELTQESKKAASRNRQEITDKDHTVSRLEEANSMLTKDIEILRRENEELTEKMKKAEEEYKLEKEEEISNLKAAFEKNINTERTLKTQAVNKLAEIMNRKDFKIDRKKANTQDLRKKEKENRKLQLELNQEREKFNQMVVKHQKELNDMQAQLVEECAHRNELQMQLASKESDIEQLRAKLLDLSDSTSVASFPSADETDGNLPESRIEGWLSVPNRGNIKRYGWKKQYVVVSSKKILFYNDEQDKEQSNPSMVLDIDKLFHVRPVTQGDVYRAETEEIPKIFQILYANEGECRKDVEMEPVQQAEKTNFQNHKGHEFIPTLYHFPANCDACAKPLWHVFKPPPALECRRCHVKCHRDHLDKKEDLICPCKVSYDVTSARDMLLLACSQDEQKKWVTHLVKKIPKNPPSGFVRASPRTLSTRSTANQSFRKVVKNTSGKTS

binding: no binding
B1: cation-dependent mannose-6-phosphate receptor (receptor, UniProt P20645 27-277)
chain: TEEKTCDLVGEKGKESEKELALVKRLKPLFNKSFESTVGQGSDTYIYIFRVCREAGNHTSGAGLVQINKSNGKETVVGRLNETHIFNGSNWIMLIYKGGDEYDNHCGKEQRRAVVMISCNRHTLADNFNPVSEERGKVQDCFYLFEMDSSLACSPEISHLSVGSILLVTFASLVAVYVVGGFLYQRLVVGAKGMEQFPHLAFWQDLGNLVADGCDFVCRSKPRNVPAAYRGVGDDQLGEESEERDDHLLPM
